The supplement of paper PMC10849652
The list shows a part of the results.

The chains behind the UniProt entries cited, without tags or fusion partners. Where a name states a change or a piece, a line headed by the entry shows the natural chain unless it says otherwise.
UniProt Q8NFW8: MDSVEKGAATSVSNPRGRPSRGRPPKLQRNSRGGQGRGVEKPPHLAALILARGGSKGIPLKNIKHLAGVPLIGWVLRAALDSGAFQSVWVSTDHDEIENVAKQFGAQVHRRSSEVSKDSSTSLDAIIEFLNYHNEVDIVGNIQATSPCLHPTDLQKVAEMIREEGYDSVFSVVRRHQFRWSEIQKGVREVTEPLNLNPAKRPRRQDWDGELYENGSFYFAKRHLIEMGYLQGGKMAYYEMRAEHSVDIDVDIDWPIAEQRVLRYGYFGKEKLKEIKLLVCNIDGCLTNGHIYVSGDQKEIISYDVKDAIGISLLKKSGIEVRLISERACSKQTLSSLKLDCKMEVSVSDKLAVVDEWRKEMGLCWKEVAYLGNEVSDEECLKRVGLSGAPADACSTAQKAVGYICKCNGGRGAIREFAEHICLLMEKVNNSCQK
UniProt Q9UHD1: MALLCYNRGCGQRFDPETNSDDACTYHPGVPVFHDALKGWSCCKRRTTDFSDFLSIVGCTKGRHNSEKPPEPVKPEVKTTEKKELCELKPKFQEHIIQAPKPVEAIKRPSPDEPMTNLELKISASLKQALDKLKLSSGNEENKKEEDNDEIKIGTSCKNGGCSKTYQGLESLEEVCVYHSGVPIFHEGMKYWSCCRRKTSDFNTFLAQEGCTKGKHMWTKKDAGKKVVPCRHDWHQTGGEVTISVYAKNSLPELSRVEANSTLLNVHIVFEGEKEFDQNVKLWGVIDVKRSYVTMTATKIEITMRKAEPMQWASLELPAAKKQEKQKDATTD
UniProt Q9NRB3: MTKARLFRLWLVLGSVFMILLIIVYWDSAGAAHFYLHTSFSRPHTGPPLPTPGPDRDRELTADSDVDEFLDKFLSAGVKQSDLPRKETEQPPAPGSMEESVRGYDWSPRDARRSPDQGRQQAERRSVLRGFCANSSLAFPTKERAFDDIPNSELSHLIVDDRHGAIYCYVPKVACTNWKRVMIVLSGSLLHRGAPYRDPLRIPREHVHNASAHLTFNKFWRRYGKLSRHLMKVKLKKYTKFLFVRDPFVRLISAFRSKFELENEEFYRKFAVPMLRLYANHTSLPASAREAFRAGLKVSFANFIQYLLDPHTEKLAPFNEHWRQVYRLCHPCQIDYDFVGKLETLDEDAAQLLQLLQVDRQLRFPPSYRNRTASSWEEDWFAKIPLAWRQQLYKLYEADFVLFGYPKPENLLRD
UniProt Q8WWK9: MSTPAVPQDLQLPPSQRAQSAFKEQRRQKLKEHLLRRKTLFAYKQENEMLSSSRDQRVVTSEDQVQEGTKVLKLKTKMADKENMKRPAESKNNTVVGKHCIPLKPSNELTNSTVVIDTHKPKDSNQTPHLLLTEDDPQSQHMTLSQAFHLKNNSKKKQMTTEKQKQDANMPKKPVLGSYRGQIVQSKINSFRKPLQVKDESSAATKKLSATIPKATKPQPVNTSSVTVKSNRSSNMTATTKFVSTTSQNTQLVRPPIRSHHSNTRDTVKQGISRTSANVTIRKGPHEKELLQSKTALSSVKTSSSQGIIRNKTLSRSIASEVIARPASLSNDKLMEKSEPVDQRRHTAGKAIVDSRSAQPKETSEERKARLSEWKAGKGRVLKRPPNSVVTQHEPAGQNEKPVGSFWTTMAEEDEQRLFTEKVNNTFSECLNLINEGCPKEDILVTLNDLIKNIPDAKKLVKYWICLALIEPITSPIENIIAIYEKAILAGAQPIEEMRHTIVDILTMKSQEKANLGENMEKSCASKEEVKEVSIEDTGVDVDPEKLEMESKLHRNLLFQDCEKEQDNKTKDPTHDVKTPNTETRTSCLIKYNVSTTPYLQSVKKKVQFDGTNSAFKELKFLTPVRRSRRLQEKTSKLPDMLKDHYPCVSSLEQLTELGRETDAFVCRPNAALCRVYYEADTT
UniProt Q5JTJ3: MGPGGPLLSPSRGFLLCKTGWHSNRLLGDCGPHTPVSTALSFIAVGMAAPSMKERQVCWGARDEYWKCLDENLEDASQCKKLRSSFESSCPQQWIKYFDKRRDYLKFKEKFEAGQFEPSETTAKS
UniProt Q8IZ52: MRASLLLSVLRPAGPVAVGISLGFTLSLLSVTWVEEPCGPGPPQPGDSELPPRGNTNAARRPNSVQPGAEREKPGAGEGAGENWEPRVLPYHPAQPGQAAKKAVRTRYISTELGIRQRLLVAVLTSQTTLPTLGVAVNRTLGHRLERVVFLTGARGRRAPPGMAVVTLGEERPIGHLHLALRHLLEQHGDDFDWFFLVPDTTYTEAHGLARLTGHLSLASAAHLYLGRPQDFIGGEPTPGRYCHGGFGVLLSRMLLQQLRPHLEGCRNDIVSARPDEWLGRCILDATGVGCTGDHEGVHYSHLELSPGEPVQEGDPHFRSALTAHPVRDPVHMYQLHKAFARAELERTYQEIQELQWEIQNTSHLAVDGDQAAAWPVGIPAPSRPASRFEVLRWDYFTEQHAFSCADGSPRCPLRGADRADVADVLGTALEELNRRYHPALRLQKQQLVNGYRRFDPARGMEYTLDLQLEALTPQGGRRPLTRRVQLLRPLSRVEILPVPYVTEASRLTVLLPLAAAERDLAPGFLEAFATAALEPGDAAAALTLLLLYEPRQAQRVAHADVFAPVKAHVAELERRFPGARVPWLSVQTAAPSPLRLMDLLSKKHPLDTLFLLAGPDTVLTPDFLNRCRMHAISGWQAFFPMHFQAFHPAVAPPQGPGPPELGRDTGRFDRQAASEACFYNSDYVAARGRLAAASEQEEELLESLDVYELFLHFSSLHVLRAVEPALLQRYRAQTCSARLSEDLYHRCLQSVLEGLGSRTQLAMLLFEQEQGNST
UniProt Q8WTW3: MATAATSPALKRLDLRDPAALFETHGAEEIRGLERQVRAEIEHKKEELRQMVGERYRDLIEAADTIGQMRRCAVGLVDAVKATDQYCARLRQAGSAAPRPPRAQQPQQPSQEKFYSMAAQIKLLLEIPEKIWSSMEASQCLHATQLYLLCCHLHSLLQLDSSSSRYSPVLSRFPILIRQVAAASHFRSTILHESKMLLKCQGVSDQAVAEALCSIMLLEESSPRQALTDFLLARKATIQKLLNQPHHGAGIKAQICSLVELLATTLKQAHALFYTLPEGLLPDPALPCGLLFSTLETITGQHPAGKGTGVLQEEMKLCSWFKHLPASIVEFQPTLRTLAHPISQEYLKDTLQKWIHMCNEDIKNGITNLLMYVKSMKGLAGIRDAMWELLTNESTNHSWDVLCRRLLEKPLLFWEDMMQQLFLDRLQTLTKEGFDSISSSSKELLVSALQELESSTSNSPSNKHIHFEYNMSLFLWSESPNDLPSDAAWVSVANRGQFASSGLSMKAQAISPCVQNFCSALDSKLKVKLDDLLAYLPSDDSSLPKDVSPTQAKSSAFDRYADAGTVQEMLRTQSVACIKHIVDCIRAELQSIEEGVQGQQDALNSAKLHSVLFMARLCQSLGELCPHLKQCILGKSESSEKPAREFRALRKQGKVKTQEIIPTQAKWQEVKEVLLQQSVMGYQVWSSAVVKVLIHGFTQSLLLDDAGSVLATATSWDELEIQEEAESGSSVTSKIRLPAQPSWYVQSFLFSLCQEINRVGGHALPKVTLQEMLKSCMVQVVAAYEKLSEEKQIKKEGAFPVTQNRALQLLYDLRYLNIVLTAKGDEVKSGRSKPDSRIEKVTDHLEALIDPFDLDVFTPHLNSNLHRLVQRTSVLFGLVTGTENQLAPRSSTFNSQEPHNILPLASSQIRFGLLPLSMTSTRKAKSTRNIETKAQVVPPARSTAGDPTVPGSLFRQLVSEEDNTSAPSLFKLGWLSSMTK
UniProt Q9C0A0: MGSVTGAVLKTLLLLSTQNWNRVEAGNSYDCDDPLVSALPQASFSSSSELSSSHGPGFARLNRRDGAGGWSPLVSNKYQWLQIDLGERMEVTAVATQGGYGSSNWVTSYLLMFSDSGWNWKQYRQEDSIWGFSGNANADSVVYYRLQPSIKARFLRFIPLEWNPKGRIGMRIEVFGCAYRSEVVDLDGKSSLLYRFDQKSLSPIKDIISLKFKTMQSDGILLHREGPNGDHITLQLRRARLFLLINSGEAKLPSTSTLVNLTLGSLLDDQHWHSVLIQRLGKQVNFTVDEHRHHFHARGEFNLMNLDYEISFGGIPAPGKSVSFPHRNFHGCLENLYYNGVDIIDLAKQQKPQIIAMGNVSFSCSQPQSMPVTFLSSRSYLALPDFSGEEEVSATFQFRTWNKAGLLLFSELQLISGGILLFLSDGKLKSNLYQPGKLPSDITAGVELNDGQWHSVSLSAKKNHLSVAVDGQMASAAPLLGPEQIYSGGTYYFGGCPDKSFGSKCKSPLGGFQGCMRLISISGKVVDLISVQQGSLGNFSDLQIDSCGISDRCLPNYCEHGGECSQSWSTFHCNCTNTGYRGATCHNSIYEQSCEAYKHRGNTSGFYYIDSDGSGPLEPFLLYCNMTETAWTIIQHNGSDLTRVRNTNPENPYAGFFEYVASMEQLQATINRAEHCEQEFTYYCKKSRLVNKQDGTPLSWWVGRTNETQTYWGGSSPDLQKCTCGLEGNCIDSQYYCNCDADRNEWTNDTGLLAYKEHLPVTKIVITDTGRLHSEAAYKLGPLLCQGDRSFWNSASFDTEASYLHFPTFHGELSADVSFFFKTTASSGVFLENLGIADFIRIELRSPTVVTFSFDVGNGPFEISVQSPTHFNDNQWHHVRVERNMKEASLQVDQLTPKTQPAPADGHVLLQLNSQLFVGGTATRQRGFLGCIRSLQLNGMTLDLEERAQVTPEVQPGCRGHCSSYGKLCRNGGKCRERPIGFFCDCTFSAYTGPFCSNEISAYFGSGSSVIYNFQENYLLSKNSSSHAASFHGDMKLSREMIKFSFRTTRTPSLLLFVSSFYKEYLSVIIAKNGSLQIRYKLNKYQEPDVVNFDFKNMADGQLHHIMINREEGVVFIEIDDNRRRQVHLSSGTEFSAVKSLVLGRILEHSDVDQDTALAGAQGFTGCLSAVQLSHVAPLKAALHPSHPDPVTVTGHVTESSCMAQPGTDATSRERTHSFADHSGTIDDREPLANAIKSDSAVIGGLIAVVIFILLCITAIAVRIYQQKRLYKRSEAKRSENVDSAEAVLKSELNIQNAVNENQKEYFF
UniProt Q9Y3D0: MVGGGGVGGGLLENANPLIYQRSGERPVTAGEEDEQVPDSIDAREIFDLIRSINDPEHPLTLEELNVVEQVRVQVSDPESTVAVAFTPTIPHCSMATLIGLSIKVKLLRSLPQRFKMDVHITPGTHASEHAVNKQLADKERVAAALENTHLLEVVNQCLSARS
UniProt Q8N1G2: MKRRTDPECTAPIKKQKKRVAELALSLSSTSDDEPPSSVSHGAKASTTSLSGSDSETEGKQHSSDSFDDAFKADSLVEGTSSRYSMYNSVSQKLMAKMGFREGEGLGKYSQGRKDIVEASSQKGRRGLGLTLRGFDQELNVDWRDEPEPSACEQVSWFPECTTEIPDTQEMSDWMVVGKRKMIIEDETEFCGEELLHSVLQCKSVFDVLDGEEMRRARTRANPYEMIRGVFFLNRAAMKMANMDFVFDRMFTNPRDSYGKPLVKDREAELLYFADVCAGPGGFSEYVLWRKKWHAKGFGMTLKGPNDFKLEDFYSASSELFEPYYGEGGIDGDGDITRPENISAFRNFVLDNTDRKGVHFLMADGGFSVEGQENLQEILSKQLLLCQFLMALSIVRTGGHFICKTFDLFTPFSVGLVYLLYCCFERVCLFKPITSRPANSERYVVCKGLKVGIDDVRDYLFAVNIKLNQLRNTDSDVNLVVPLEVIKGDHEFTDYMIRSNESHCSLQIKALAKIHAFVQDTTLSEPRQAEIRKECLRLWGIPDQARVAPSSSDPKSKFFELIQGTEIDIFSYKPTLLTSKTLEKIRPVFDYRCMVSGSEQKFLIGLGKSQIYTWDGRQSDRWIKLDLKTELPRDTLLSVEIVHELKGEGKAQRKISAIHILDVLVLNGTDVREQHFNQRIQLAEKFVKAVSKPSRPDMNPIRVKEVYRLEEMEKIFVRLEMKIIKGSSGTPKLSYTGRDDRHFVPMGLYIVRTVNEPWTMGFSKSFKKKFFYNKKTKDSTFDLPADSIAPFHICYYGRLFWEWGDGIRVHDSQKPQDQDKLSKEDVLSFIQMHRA
UniProt Q9Y3Y2: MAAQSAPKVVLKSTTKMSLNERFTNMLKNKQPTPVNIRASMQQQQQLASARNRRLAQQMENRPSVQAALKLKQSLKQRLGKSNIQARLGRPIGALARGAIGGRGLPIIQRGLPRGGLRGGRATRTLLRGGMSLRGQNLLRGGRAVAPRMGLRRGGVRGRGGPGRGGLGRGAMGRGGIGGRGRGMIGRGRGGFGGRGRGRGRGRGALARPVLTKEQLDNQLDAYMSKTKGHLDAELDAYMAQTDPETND
UniProt Q8N129: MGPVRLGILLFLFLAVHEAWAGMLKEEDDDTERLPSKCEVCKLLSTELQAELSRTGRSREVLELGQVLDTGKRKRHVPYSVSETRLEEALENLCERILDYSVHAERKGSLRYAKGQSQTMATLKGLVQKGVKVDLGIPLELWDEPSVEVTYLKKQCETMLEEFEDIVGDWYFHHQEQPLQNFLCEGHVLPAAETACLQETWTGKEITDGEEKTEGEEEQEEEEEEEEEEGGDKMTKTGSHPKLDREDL

Columns and labels:
Assay in all cases: log2 fold change, soluble protein after heating vs DMSO (PISA); higher = thermal stabilisation; K562 cells, 10 uM, 30 min; active = over 0.2 and 3.5 SD of the protein, either way, in both replicates (recomputed)
[1] = compound: CN1CCN(CCOc2cc(OC3CCOCC3)c3c(Nc4c(Cl)ccc5c4OCO5)ncnc3c2)CC1 [saracatinib]
How it was run: (§1)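 K562 cells at 2×10^6 cells/mL were treated for 30 min with 10 μM compound, and aliquots were heated for 3 min over 48°C-58°C before pooling. Extraction used PBS with 0.5% NP-40 at 4°C, and soluble protein was the supernatant after 21,000xg for 90 min, measured by TMTpro 16plex LC-MS/MS with channel sums equalised. Thermal stability values, relative to control samples and from duplicates, are log2 fold changes.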

[2] = compound: CN1CCN(c2nc(C3=C(c4c[nH]c5ccccc45)C(=O)NC3=O)c3ccccc3n2)CC1 [sotrastaurin]
How it was run: as §1

[3] = compound: CN1CC[C@H](c2c(O)cc(O)c3c(=O)cc(-c4ccccc4Cl)oc23)[C@H](O)C1 [alvocidib]
How it was run: as §1

[4] = compound: CN1CCc2c(c3ccccc3n2Cc2ccc(C(=O)NO)cc2)C1 [Tubastatin A]
How it was run: as §1

[5] = compound: CNC(=O)C1=CC=CC=C1NC2=NC(=NC=C2Cl)NC3=C(C=C(C=C3)N4CCOCC4)OC
How it was run: as §1

[6] = compound: CNC(=O)c1ccc(Nc2ncc(C(F)(F)F)c(NCc3nccnc3N(C)S(C)(=O)=O)n2)cc1 [defactinib]
How it was run: as §1

[7] = compound: CNCc1ccc(-c2[nH]c3cc(F)cc4c3c2CCNC4=O)cc1 [rucaparib]
How it was run: as §1

[8] = compound: CNc1nc(-c2ccc3c(N)n[nH]c3c2)cc(N2C[C@@H](C(=O)NC3CCCCC3)CC[C@H]2C)n1
How it was run: as §1

[9] = compound: COC(=O)N[C@@H](C)CNc1nccc(-c2cn(C(C)C)nc2-c2cc(Cl)cc(NS(C)(=O)=O)c2F)n1 [encorafenib]
How it was run: as §1

[10] = compound: COC(=O)[C@H](CCSC)NC(=O)C1=C(C=C(C=C1)NC[C@H](CS)N)C2=CC=CC=C2
How it was run: as §1

Measured: log2 fold change

CMAS (UniProt Q8NFW8)
inactive: [1] -0.072 | [2] 0.056 | [3] 0.135 | [4] 0 | [5] -0.052 | [6] 0.169 | [7] 0.16 | [8] 0.059 | [9] 0.126 | [10] 0.018

COA3 (UniProt Q9Y2R0)
inactive: [1] 0.05 | [2] 0.02 | [3] 0.049 | [4] 0.012 | [5] -0.011 | [6] 0.004 | [7] -0.01 | [8] -0.038 | [9] -0.022 | [10] 0.007

CNNM3 (UniProt Q8NE01)
inactive: [1] -0.086 | [2] 0.072 | [3] -0.013 | [4] 0.05 | [5] -0.004 | [6] 0.027 | [7] -0.02 | [8] -0.011 | [9] -0.045 | [10] -0.042

CLPB isoform 2 (UniProt Q9H078)
inactive: [1] 0.064 | [2] -0.031 | [3] -0.043 | [4] 0 | [5] -0.017 | [6] -0.047 | [7] 0.018 | [8] 0.047 | [9] -0.002 | [10] -0.045

CHORDC1 (UniProt Q9UHD1)
inactive: [1] -0.02 | [2] -0.021 | [3] -0.06 | [4] -0.026 | [5] 0.017 | [6] -0.049 | [7] -0.064 | [8] 0.01 | [9] -0.001 | [10] 0

CHST12 (UniProt Q9NRB3)
inactive: [1] -0.348 | [2] 0.076 | [3] 0.046 | [4] -0.015 | [5] -0.078 | [6] -0.091 | [8] -0.084 | [10] -0.016

CNBP (UniProt P62633)
inactive: [1] -0.083 | [2] 0.15 | [3] 0.053 | [5] -0.013 | [7] 0.124 | [8] -0.023 | [9] -0.065

CKB (UniProt P12277)
inactive: [1] -0.041 | [2] 0.019 | [4] -0.004 | [5] -0.016 | [6] -0.006 | [7] -0.059 | [8] 0.043 | [9] 0.015 | [10] -0.011

CLPX (UniProt O76031)
inactive: [1] 0.014 | [2] 0.014 | [4] 0.025 | [5] -0.016 | [6] -0.027 | [7] 0.034 | [8] -0.038 | [9] -0.013 | [10] -0.01

CLSPN (UniProt Q9HAW4)
inactive: [1] 0.076 | [2] 0.002 | [4] 0.039 | [5] 0.053 | [6] -0.183 | [7] -0.11 | [8] -0.102 | [9] 0.031 | [10] 0.047

CKAP4 (UniProt Q07065)
inactive: [1] -0.06 | [2] -0.036 | [3] -0.007 | [4] 0.015 | [6] -0.054 | [7] -0.04 | [8] 0.055 | [9] 0.099 | [10] -0.018

COA4 isoform 2 (UniProt Q9NYJ1)
inactive: [1] 0.057 | [2] 0.071 | [3] 0.234 | [5] -0.006 | [7] 0.065 | [8] -0.168 | [9] -0.124

CNTN4 (UniProt Q8IWV2)
inactive: [1] -0.026 | [2] -0.033 | [4] 0.256 | [5] -0.225 | [6] -0.06 | [7] -0.01 | [8] -0.016 | [9] -0.082 | [10] 0.004

CKAP2 (UniProt Q8WWK9)
inactive: [1] -0.084 | [2] -0.036 | [3] 0.127 | [4] 0.094 | [5] 0.05 | [8] 0.032

Retrieved one by one from the entries so far, 2 records:
CKAP2 (UniProt Q8WWK9)
inactive: [1] -0.084 | [2] -0.036 | [3] 0.127 | [4] 0.094 | [5] 0.05 | [8] 0.032

CLSPN (UniProt Q9HAW4)
inactive: [1] 0.076 | [2] 0.002 | [4] 0.039 | [5] 0.053 | [6] -0.183 | [7] -0.11 | [8] -0.102 | [9] 0.031 | [10] 0.047

Next records follow:

CLCN2 (UniProt P51788)
inactive: [1] -0.006 | [2] -0.024 | [3] -0.009 | [5] -0.091 | [6] -0.001 | [8] -0.083 | [10] 0.017

CLCN6 isoform 5 (UniProt P51797)
inactive: [1] -0.098 | [2] 0.166 | [3] 0.141 | [5] 0.086 | [6] 0.011 | [7] 0.1 | [8] -0.033 | [9] 0.094 | [10] -0.179

COA6 isoform 2 (UniProt Q5JTJ3)
inactive: [1] 0.175 | [2] 0.063 | [4] 0.07 | [5] 0.354 | [6] -0.022 | [7] -0.068 | [8] 0.138 | [9] -0.055 | [10] 0.072

CNOT7 (UniProt Q9UIV1)
inactive: [1] 0.008 | [2] -0.044 | [4] 0.004 | [5] -0.035 | [6] 0.018 | [7] 0.051 | [8] 0.104 | [9] 0.113 | [10] -0.109

CHPF (UniProt Q8IZ52)
inactive: [1] -0.054 | [2] -0.002 | [3] -0.038 | [4] 0.14 | [6] 0.208 | [7] 0.03 | [8] -0.094 | [9] 0.106 | [10] 0.019

COG1 (UniProt Q8WTW3)
inactive: [1] -0.208 | [2] -0.015 | [3] 0.167 | [4] 0.251 | [8] 0.099

CNOT6 (UniProt Q9ULM6)
inactive: [1] -0.003 | [2] -0.113 | [3] -0.111 | [5] 0.176 | [6] -0.037 | [7] -0.006 | [8] 0.088 | [9] 0.113 | [10] -0.037

CHST2 (UniProt Q9Y4C5)
inactive: [1] -0.073 | [2] 0.044 | [3] -0.007 | [4] 0.048 | [5] 0.101 | [8] 0.009

CNTNAP4 (UniProt Q9C0A0)
inactive: [1] -0.052 | [2] 0.008 | [3] 0.24 | [4] 0.03 | [5] 0.021 | [6] 0.25 | [7] 0.388 | [8] 0.016 | [9] 0.139 | [10] 0.003

CIAO2B (UniProt Q9Y3D0)
inactive: [1] -0.063 | [2] -0.075 | [3] 0.144 | [5] 0.024 | [7] -0.007 | [8] -0.186 | [9] 0.059

COG4 (UniProt Q9H9E3)
inactive: [1] -0.201 | [2] -0.053 | [3] 0.143 | [4] 0.136 | [5] -0.096 | [6] 0.183 | [8] -0.064 | [10] 0.19

CMTR1 (UniProt Q8N1G2)
inactive: [1] 0.009 | [2] 0.018 | [4] -0.052 | [5] 0.045 | [6] -0.026 | [7] 0.003 | [8] 0.099 | [9] 0.06 | [10] -0.091

CNTRL (UniProt Q7Z7A1)
inactive: [1] -0.128 | [2] -0.008 | [3] -0.023 | [4] 0.07 | [6] 0.002 | [7] -0.107 | [8] -0.17 | [9] 0.136 | [10] 0.009

CLUH, A0A494C0R8
inactive: [1] -0.037 | [2] -0.058 | [4] -0.088 | [5] 0.09 | [6] -0.068 | [7] 0.16 | [8] 0.138 | [9] 0.032 | [10] 0.102

CHTOP isoform 3 (UniProt Q9Y3Y2)
inactive: [1] -0.379 | [2] -0.27 | [3] 0.091 | [4] 0.044 | [5] 0.081 | [6] 0.424 | [8] -0.356 | [10] 0.021

CNPY4 (UniProt Q8N129)
inactive: [1] 0.035 | [2] -0.02 | [3] 0.084 | [4] 0.046 | [5] 0.001 | [6] -0.028 | [8] -0.073 | [10] -0.092

COASY isoform 2 (UniProt Q13057)
inactive: [1] 0.003 | [2] -0.001 | [4] -0.001 | [5] 0.035 | [6] -0.065 | [7] 0.011 | [8] -0.03 | [9] 0.034 | [10] -0.029
